Source: PubChem BioAssay AID336 (DTP/NCI, 2004)
The list does not hold the whole screen: it gathers some chemical classes. Other doses and runs of a compound may be missing. T/C is the treated group as % of the vehicle group. For survival time, the PubChem record calls one and a half times the control and up active, and a quarter to a half above the control has no call in these data; cut-offs in other NCI protocols can differ. Some T/C values are marked as having no survivor count here; that says nothing about deaths at the dose. Schedule codes are those of the source, taken here to give the interval after Q, in days (D) or hours (H), and the number of doses after X. Some entries were tested several times; the values are given in rising order.

System: BDF1 mice, P388/VCR leukemia ip, median survival T/C
Test: NCI In Vivo Anticancer Drug Screen. Data for tumor model P388 Leukemia resistant to Vincristine; NSC 67574 (intraperitoneal) in B6D2F1 (BDF1) mice
Conditions: T/C endpoint: median survival time, vehicle: saline, higher T/C = longer survival
Method: The antitumor activity of compounds was measured in mice bearing transplantable tumors. Survival or tumor size were measured and the results are expressed as the measurement made in the treated group (T) divided by the measurement made in the vehicle treated control group (C). The tumor model used in this assay is P388 Leukemia resistant to Vincristine; NSC 67574 (intraperitoneal) in B6D2F1 (BDF1) mice

CN(CCCl)CCCl
T/C (dose: 0.13 mg/kg/injection, schedule: Q01DX010 (ip)): 173 [survivor count not shown] and 178 % of control [survivor count not shown]
T/C (dose: 0.25 mg/kg/injection, schedule: Q01DX010 (ip)): 107 [survivor count not shown] and 230 % of control [survivor count not shown]
T/C (dose: 38.9 micrograms/kg/injection, schedule: Q04DX003 (ip)): 151 % of control [survivor count not shown]
T/C (dose: 648.0 micrograms/kg/injection, schedule: Q04DX003 (ip)): 194 % of control [survivor count not shown]
T/C (dose: 1080.0 micrograms/kg/injection, schedule: Q04DX003 (ip)): 124 % of control [survivor count not shown]
T/C (dose: 1800.0 micrograms/kg/injection, schedule: Q04DX003 (ip)): 124 % of control [survivor count not shown]
